# From PubChem BioAssay AID504444 (National Center for Advancing Translational Sciences (NCATS), 2011)
# Out of some 360,000 compounds screened, about 7,500 (2.1%) were called active. Inconclusive means that the source gave no clear call. Such entries were picked first, then a sample of the others. Calls follow the shape of the dose curve; as a rule, active = well fitted inhibition curve with a large enough effect; inconclusive = small, poorly fitted or top-dose-only effect, or effect the other way; inactive = flat fitted curve, though single readings scatter. Where the call is inconclusive, the potency comes from a doubtful curve fit.
# Assay: Nrf2 qHTS screen for inhibitors; also: nearly all actives have a fitted effect of over 60% in size
# Conditions: A549 ARE-Fluc reporter, luciferase luminescence, 18-24 h; activity change, negative = inhibition: at 46 µM (top of the series)
# Method in brief: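 Nrf2 function is reported as luminescence of an ARE-controlled luciferase in A549 cells. Compounds were tested at several concentrations, and a CellTiter-Fluor read on the same wells flagged cytotoxicity.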
# % is scaled to controls: 0 for no effect and ±100 for the full control effect; potency is read from the fitted curve at half-maximal effect.
Structure (SMILES),Potency,"activity change, negative = inhibition"
COc1cc2c(cc1OC)CN(C(=O)c1cc(S(=O)(=O)N3CCCCC3)ccc1Cl)CC2,"inconclusive: 10.3 µM [falling, partial curve]",–
Cc1cc(OCCNCCO)cc(C)c1Cl,–,inactive: -20%
Cc1cc(C(=O)NCc2ccccc2Cl)c2ccccc2n1,"inconclusive: 25.9 µM [falling, single point]",–
Cc1cc(C)c(C)c(S(=O)(=O)N(C)CCc2ccccn2)c1C,"inconclusive: 14.6 µM [falling, partial curve]",–
CCc1ccc(S(=O)(=O)c2nnn3c2nc(Nc2ccc(C)c(Cl)c2)c2sccc23)cc1,"inconclusive: 32.6 µM [activator, single point]",–
CCOC(=O)c1c(NC(=O)CSc2nnc(CNC(=O)c3ccco3)n2C)sc2c1CCC2,"inconclusive: 20.6 µM [falling, single point]",–
CC1(C)CC(=S)Nc2ccccc2S1,"inconclusive: 29.1 µM [falling, partial curve, poor fit]",–
O=C(CN1CCN(Cc2ccccc2Cl)CC1)N/N=C/C=C/c1ccco1,–,inactive: -13.3%
Cc1ccc(C2=NS(=O)(=O)N(C)C(C(=O)NC3CCCCC3)=C2)cc1,"inconclusive: 20.6 µM [falling, partial curve, poor fit]",–
Cc1cccc(-n2ncc(C(=O)N3CCN(Cc4ccccc4)CC3)c2C2CCN(C(=O)OC(C)(C)C)CC2)c1,"inconclusive: 1.64 µM [falling, partial curve, poor fit]",–
O=C(c1ccccc1)c1ccc(O)cc1O,–,inactive: -21%
CCc1cc2c(NCc3ccccc3)nc(C)nc2s1,"inconclusive: 29.1 µM [falling, single point]",–
COc1ccc2cc3cc(C(=O)N4CC(C)CC(C)C4)oc3nc2c1 (stereo unspecified),"inconclusive: 7.31 µM [activator, partial curve]",–
CN(C)c1nc(N(C)C)nc(N2CC(=O)N(c3ccccc3)C2=N)n1,"inconclusive: 18.4 µM [falling, single point]",–
CC(C)S(=O)(=O)N1CCN(c2nc(-c3cccs3)nc3ccccc23)CC1,"inconclusive: 20.6 µM [falling, single point]",–
COc1ccc(CCNS(=O)(=O)c2ccc(Br)cc2)cc1OC,"inconclusive: 29.1 µM [falling, single point]",–
COc1ccc(NC(=O)O/N=C/c2c(C)nn(C(C)(C)C)c2C)cc1,"inconclusive: 0.82 µM [activator, full curve, poor fit]",–
Cc1[nH]c(=O)[nH]c1C(=O)CCCCC(=O)O,–,inactive: 10.4%
CC1CCN(C(=O)CSc2nnc3ccccn23)CC1,"inconclusive: 10.3 µM [activator, partial curve]",–
CCN(CC)S(=O)(=O)c1ccc(N2CCOCC2)c(NC(=O)c2cnccn2)c1,–,inactive: -5.53%
Cc1noc(C(=O)Nc2ccc(F)c(Cl)c2)c1Cl,"inconclusive: 4.61 µM [activator, full curve]",–
Cc1cc2nc(N)sc2cc1[N+](=O)[O-],"inconclusive: 29.1 µM [activator, single point]",–

Structure (SMILES),Potency,"activity change, negative = inhibition"
Cc1cc(C)c2c(N)c(C(=O)c3cccc(Cl)c3)sc2n1,–,inactive: 11.6%
O=C(Nc1ccnc(-c2ccncc2)n1)c1ccccc1Cl,"inconclusive: 9.2 µM [falling, partial curve, poor fit]",–
CCCCN(Cc1ccccc1)c1ncnc2nc[nH]c12,"inconclusive: 8.2 µM [activator, partial curve, poor fit]",–
Cc1ccc(-n2ncc(C(=O)NCCN3CCCC3)c2C2CCN(C(=O)OC(C)(C)C)CC2)cc1,"inconclusive: 6.51 µM [activator, partial curve, poor fit]",–
CC(C)(C)C1CCc2onc(C(=O)Nc3cnn(Cc4ccc(F)cc4)c3)c2C1 (stereo unspecified),"inconclusive: 4.11 µM [falling, full curve, poor fit]",–
NS(=O)(=O)c1ccc(N=Nc2c[nH]c(=O)c(O)c2)cc1,–,inactive: -21%
Cc1ccc(NC(=O)NC(=O)CN2CCN(c3ccc(O)cc3)CC2)c(C)c1,active: 23.1 µM,–
CCc1nc(C)cn1S(=O)(=O)c1ccc(Br)cc1,"inconclusive: 7.31 µM [activator, single point]",–
CC1(C)CC(=O)C(C2c3ccccc3Oc3ccccc32)C(=O)C1,"inconclusive: 32.6 µM [falling, partial curve, poor fit]",–
c1ccc(C[n+]2ccc3ccccc3c2)cc1,"inconclusive: 23.1 µM [falling, single point]",–
COc1cc(NC(=O)CSCc2ccc(Cl)cc2)c(C(=O)O)cc1OC,–,inactive: -16.6%
Cc1ccc(C2=Nc3cccnc3C(c3ccccc3)=NN2)cc1,"inconclusive: 11.6 µM [activator, partial curve, poor fit]",–
COc1ccc(NC(=O)c2cc3n(n2)C(C(F)(F)F)CC(c2ccc4c(c2)OCO4)N3)cc1OC (stereo unspecified),active: 23.1 µM,–
CSc1ccc(/C=N/NC(=O)c2sccc2C)cc1,"inconclusive: 5.8 µM [activator, partial curve]",–
COc1cc(CCC(=O)OCC(=O)Nc2cccc(S(=O)(=O)N(C)C)c2)cc(OC)c1OC,–,inactive: -1.26%
CNS(=O)(=O)c1cccc(C(=O)Nc2cccc(Cl)c2)c1,"inconclusive: 29.1 µM [falling, single point]",–
CC1(C)NC(=O)N(CC(O)COc2ccc(-c3ccc(C#N)cc3)cc2)C1=O (stereo unspecified),"inconclusive: 16.4 µM [falling, single point]",–
CC(C)NS(=O)(=O)c1ccc(CCC(=O)NCc2ccco2)cc1,"inconclusive: 2.91 µM [activator, partial curve]",–
CCC(C)(C)C1CCc2[nH]nc(C(=O)NCc3ccc(OC)cc3)c2C1 (stereo unspecified),"inconclusive: 7.31 µM [falling, partial curve]",–
Cc1ccnc2nc(C(=O)OCC(=O)N3CC(C)CC(C)C3)nn12 (stereo unspecified),"inconclusive: 3.66 µM [falling, partial curve, poor fit]",–
CCN(CC)CCCn1c2c(c(SCC(=O)Nc3nc4ccccc4s3)nc1=O)CCC2,"inconclusive: 16.4 µM [activator, partial curve, poor fit]",–
COc1ccc(-n2nc([N+](=O)[O-])c(=NCCc3ccc(C)cc3)n2O)cc1,"inconclusive: 13 µM [activator, partial curve]",–

# By substructure, the entries above containing bromine.
Structure (SMILES),Potency,"activity change, negative = inhibition"
COc1ccc(CCNS(=O)(=O)c2ccc(Br)cc2)cc1OC,"inconclusive: 29.1 µM [falling, single point]",–
CCc1nc(C)cn1S(=O)(=O)c1ccc(Br)cc1,"inconclusive: 7.31 µM [activator, single point]",–

# Remaining list, next part.

Structure (SMILES),Potency,"activity change, negative = inhibition"
O=C(COC(=O)c1ccc(C(F)(F)F)cc1)NC(=O)C1CCCCC1,"inconclusive: 23.1 µM [falling, partial curve, poor fit]",–
COc1ccc(OC)c(C(=O)Nc2ccc3[nH]ccc3c2)c1,"inconclusive: 3.66 µM [activator, partial curve]",–
O=C(Nc1cccc(C(F)(F)F)c1)c1cc(S(=O)(=O)N2CCCC2)c[nH]1,–,inactive: -25.7%
COc1ccccc1-c1noc(-c2ccc(NCc3ccco3)c([N+](=O)[O-])c2)n1,"inconclusive: 25.9 µM [activator, single point]",–
COc1cc2c(cc1/C=C1/NC(=O)N(c3ccccc3)C1=O)OCO2,"inconclusive: 6.51 µM [activator, partial curve, poor fit]",–
O=C1/C(=C/c2cccs2)SC(=S)N1c1ccccc1,active: 10.3 µM,–
Cc1cccc(C)c1OCC(=O)Nc1ccccc1C(F)(F)F,–,inactive: 5.83%
COc1ccc(CN2CC(=O)N(c3ccccc3C)C2=S)cc1OC,"inconclusive: 14.6 µM [falling, partial curve, poor fit]",–
O=C(COC(=O)c1cc(S(=O)(=O)N2CCOCC2)c(Cl)cc1Cl)Nc1ncc(C(F)(F)F)cc1Cl,"inconclusive: 29.1 µM [activator, single point]",–
COc1cc(NC(=S)Nc2ccc(OC(F)F)cc2)cc(OC)c1,"inconclusive: 16.4 µM [falling, partial curve, poor fit]",–
Cc1ccc(CNC(=O)NC2CCCCC2)cc1,"inconclusive: 29.1 µM [activator, single point]",–
CCn1c(=O)c(C(=O)Nn2c(C)nc3ccccc3c2=O)c(O)c2ccccc21,"inconclusive: 29.1 µM [falling, single point]",–
O=C(CSc1oc(-c2ccccc2)nc1S(=O)(=O)c1ccc(Cl)cc1)NC1CCCCC1,–,inactive: 4.31% [at 9.27 µM]
O=C(COC(=O)c1cc(S(=O)(=O)N2CCCC2)ccc1O)Nc1ccc(SC(F)F)cc1,–,inactive: -30.1%
COc1ccc(-n2nnc(-c3nsc(NC(=O)c4ccc(C)c(C)c4)n3)c2C)cc1Cl,"inconclusive: 29.1 µM [activator, single point]",–
N#Cc1ccccc1NC(=O)CSc1ccc([N+](=O)[O-])cn1,"inconclusive: 2.31 µM [activator, partial curve, poor fit]",–
CC(=O)c1ccc(Nc2nc3ccc(C)cc3n3cnnc23)cc1,"inconclusive: 9.2 µM [falling, partial curve]",–
Cc1cc(C)c(NS(=O)(=O)c2cc(-c3onc(C)c3C)ccc2C)c(C)c1,"inconclusive: 29.1 µM [activator, single point]",–
O=C(CCCc1nc(-c2ccc(Cl)cc2)no1)N1CCOCC1,"inconclusive: 1.3 µM [falling, full curve]",–
COc1ccccc1N(CC(=O)Nc1ccc(S(=O)(=O)N2CCCCC2)cc1)S(C)(=O)=O,"inconclusive: 32.6 µM [falling, partial curve, poor fit]",–
CCC/C=C1/CCCOC(C(=O)NCCNCCO)(C(F)(F)F)C1 (stereo unspecified),"inconclusive: 36.6 µM [falling, partial curve, poor fit]",–
CC1CCN(C(=O)c2ccc3c(c2)N(Cc2ccccc2)C(=O)c2ccccc2S3(=O)=O)CC1,"inconclusive: 18.4 µM [falling, single point]",–
